## Results of single-concentration screens

Data taken from ChEMBL document CHEMBL3988442, “University of Dundee, Small-Polar-MMV Screening Library” (2021).

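Whole-parasite assay of Trypanosoma brucei over 72 hours; the read-out is not stated. Tested at 30 µM. Higher reads as stronger inhibition (inferred: compounds with an IC50 in retests scored well above the rest). Values scatter widely below zero; nearly all retest evidence comes from the higher of the two concentrations used. Size under these conditions: about 64,000 compounds, about 940 of them at 50% or above in at least one test.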

Results are given as percent effect.
How 0% and 100% were set is not recorded. Most values in the screen are low, and negative values occur.
This is an unselected part of the compounds tested.

| structure | percent effect |
|---|---|
| `Cc1ncoc1C(=O)N1CCCC(c2ccc3c(N)nn(C)c3n2)C1` (stereo unspecified) | 32.08% |
| `CNC(=O)CN(C)c1cncc(OCC(C)C)n1` | -18.74% |
| `[H][C@]12CC[C@]([H])(CN(Cc3ccccc3C#N)C1)N(CC1CCC1)C2=O` | -10.46% |
| `O=C(O)C(F)(F)F.O=C(O)C(F)(F)F.[H][C@@]12COC[C@]1(CNS(=O)(=O)CC)CN(Cc1ccccn1)C2` | -1.934% |
| `CC(C)NC(=O)CS(=O)(=O)Cc1cc(Cl)c2c(c1)OCCO2` | -34.37% |
| `COc1ccc(CN[C@H]2CC[C@@]3(CCC(=O)N3)CC2)cc1.O=C(O)C(F)(F)F` | -11.39% |
| `CC(C)(O)CN1CCN(C(=O)COCC(F)(F)F)CC1` | 15.08% |
| `O=C(CCc1ccco1)NS(=O)(=O)N1CCOc2ccccc21` | -20.08% |
| `CC(=O)Nc1ncc(S(=O)(=O)Nc2ccc(C)cc2)s1` | -13.75% |
| `Cn1c(-c2cc3n(n2)CCCN(CC(=O)O)C3)nc2ccccc21` | -94.91% |
| `Cc1ccc(N2CCCC(N(C)c3nn4cc(C)nc4s3)C2)nn1` (stereo unspecified) | -109.9% |
| `CCc1ccsc1C(=O)NC(Cc1ccccc1)C(N)=O` (stereo unspecified) | -28.59% |
| `CCc1ccc(CN2CCC3(CC2)C(=O)N(C)CCN3CC2CC2)cc1.O=C(O)C(F)(F)F` | -16.54% |
| `CC(O)CN1CCN(C(=O)c2ccc(Br)o2)CC1` (stereo unspecified) | -25.85% |
| `O=C(O)CSc1nc(-c2ccc3c(c2)CCC3)n[nH]1` | 1.225% |
| `CCN1CCN(C(=O)c2ccc(OC)nn2)c2ccccc21` | -14.92% |
| `Cc1cc(NC(=O)Cc2ccccc2O)cnc1N1CCCCC1` | 26.75% |
| `Cc1nccn1-c1ccc(=O)n(CCNC(=O)c2c(F)cccc2Cl)n1` | -16.81% |
| `CCc1cnc(CN2CCC(N(C)Cc3noc(C4CC4)n3)C2)o1` (stereo unspecified) | -11.76% |
| `Cc1nn(C)c2cn(CC(=O)N3CCN(c4ccccc4)CC3)nc12` | -46.71% |
| `Cc1ccccc1CN(C)C(=O)CCc1nc(-c2nnc[nH]2)no1` | -22.54% |
| `O=C(O)C(F)(F)F.O=C(O)C(F)(F)F.O=C(O)C(F)(F)F.[H][C@@]12CC(=O)N(Cc3ccncc3)[C@@]1([H])CCN2Cc1ccccn1` | 14.81% |
| `CCS(=O)(=O)N1Cc2ncn(CC3CC3)c2C(COC)C1` (stereo unspecified) | -20.75% |
| `CCc1cccc2cc(CNCCCN3CCOCC3)c(=O)[nH]c12` | 0.7277% |
| `O=C(O)C(F)(F)F.O=C(O)C(F)(F)F.[H][C@@]12CCN(Cc3cccc(C#N)c3)[C@@]1([H])CC(=O)N2Cc1cccnc1` | -2.932% |
| `O=C(c1csc(-c2ccc(C(F)(F)F)cc2)n1)N1CCCNCC1` | -49.09% |
| `Cc1cc(C(O)CCNS(=O)(=O)c2ccc(Cl)s2)c(C)o1` (stereo unspecified) | -21.39% |
| `FC(F)(F)Cn1ccnc1CNCCn1cccn1` | -117.9% |
| `Cc1cc(C)cc(C(=O)NCc2ncnn2C)c1` | -8.221% |
| `COCCOc1ccc(C(=O)N2CCCC(n3cncn3)C2)cn1` (stereo unspecified) | -14.96% |
| `CN(CCO)C(=O)Nc1ccn(-c2cccc(C(F)(F)F)c2)n1` | -37.86% |
| `O=C(O)C(F)(F)F.[H][C@]12CCN(Cc3ccc(CC)o3)[C@@]1([H])CCC(=O)N2` | -13.17% |
| `Cc1nn(-c2ccccc2)nc1C(=O)N1CCCC(n2cccn2)C1` (stereo unspecified) | 12.6% |
| `COc1ccc(CNC(=O)NCC2CCOC2)c(C(F)(F)F)c1` (stereo unspecified) | 47.8% |
| `Cc1ncn(CCNC(=O)Nc2ccc(OC(F)(F)F)cc2)c(=O)c1C` | -6.151% |
| `CSC1(CNc2ncc(Br)cn2)CCOCC1` | -55.76% |
| `O=C(c1cnccn1)N1CCN(Cc2csc(-c3ccccc3)n2)CC1` | -49.32% |
| `[H][C@@]12CS(=O)(=O)C[C@]1([H])N(Cc1nc3ccccc3[nH]1)CCN2CC1CC1` | -198.7% |
| `CN(Cc1nnc(C2CC2)o1)Cc1ccccc1-c1ccccc1` | -27.27% |
| `Cc1ccsc1C(=O)NCC1COCc2c(C)nnn2C1` (stereo unspecified) | -35.12% |
| `Cc1cnccc1CN1CCN(C)C2(CCC(=O)N(CC3CC3)CC2)C1` (stereo unspecified) | -43.55% |
| `Cc1cc(C)c(OCC(=O)NS(=O)(=O)c2c(C)noc2C)c(C)c1` | -35.52% |
| `O=C(Cc1c(F)cccc1Cl)Nc1cccc(N2CCCC2)c1` | -0.5365% |
| `CC(CC(=O)c1ccco1)NC(=O)c1ccccn1` (stereo unspecified) | -112% |
| `CSc1ccc(CNc2n[nH]c(C)n2)cc1` | -74.27% |
| `COCc1cc(N2CCN(C3CCCCC3)CC2)n2nccc2n1` | 26.89% |
| `CC(=O)Nc1ccc(CCC2(NC(=O)C3CC3)CCCCC2)cn1` | 1.37% |
| `Cc1ccn(CCNc2ncnc3c2CCN(S(C)(=O)=O)CC3)n1` | -2.522% |
| `Cn1ccc(C(=O)N2CCC3(CCN3c3ncccn3)C2)n1.O=C(O)C(F)(F)F` (stereo unspecified) | -36.19% |
| `CC(=O)NC(C)C1=CCCN(Cc2ccc(C(=O)O)cc2)C1` (stereo unspecified) | -10.73% |
| `CCNS(=O)(=O)C1CCN(C(=O)c2ccc(F)cc2)C1` (stereo unspecified) | -25.74% |
| `[H][C@@]12CCN(C(=O)C3CCSCC3)C[C@]1(COC)CCO2` | -28.52% |
| `COc1ccc(NC(=O)C2CC(=O)n3cnnc3S2)cc1` (stereo unspecified) | -16.74% |
| `CCC(C)n1cnc(S(=O)(=O)N(C)c2cccnc2N(C)C)c1` (stereo unspecified) | -18.01% |
| `Cc1cnc(NCCCN2CCc3ccccc32)nc1` | -27.43% |
| `CN1C[C@@H](N)C[C@H]1c1nc(-c2ccc3c(c2)OCO3)no1` | -4.427% |
| `Cc1ncsc1C(=O)NC1CCN(CC(=O)N(C)C(C)(C)C#N)CC1` | -43.1% |
| `COCCN1CCC2(CC1)CC(NC(=O)C1CC1)c1ccccc1O2.O=C(O)C(F)(F)F` (stereo unspecified) | -14.66% |
| `CCCN1CCC(c2nc3ccc(NCc4ccccc4)cn3n2)CC1.O=C(O)C(F)(F)F.O=C(O)C(F)(F)F` | 10.8% |
| `CCNS(=O)(=O)c1ccc2c(c1)c(=O)n(CC)c(=O)n2CC` | -62.87% |
| `CN1CCCN(C(=O)NCCNc2ncccc2C#N)CC1` | -40.75% |
| `CCN(C(=O)c1ccc(-c2ccccc2)nc1C)C1CC(=O)NC1=O` (stereo unspecified) | -41.08% |
| `CN1CCCN(C(=O)c2nc3c(s2)CCCN3CC2CC2)CC1` | -24.15% |
| `COCC(=O)N1CCC2(CCC2NS(=O)(=O)c2ccccc2)CC1` (stereo unspecified) | -72.15% |
| `[H][C@@]12CCN(C(=O)OCc3ccccc3)C[C@@]1([H])OC(CO)C2` (stereo partly specified) | -20.13% |